Measurements reported in PubChem BioAssay AID1053208 (Peter MacCallum Cancer Centre, 2014)
Shown is one part, drawn at random, of about 17,000 deposited reagents. Over the whole deposit, 788 (4.7%) are marked active. 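Calls rest on z-score classes alone; an extra cut-off of viability at most 70% of control was not applied to them.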 A number with no mark means an inactive call. Not all columns of the deposit are shown.

Screen: 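Find knock-downs that sensitise mouse osteosarcoma cells to doxorubicin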 (primary screen)
Cells: mouse osteosarcoma cells, early-passage culture from an engineered mouse model of fibroblastic bone tumour
Reagent: siRNA pool against mouse genes, 40 nM
Time to read-out: about 120 h (48 h before drug, then 72 h with drug)
Challenge: doxorubicin 100 nM for 72 h, roughly 30-40% inhibitory dose
Measured: 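Viability read as ATP luminescence after 72 h of 100 nM doxorubicin or none, duplicate wells averaged, scaled to non-targeting siRNA, then expressed as robust z-scores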
Direction: viability z-score with doxorubicin: higher = more viable cells under doxorubicin; viability z-score without drug: higher = more viable cells with knock-down alone
Rule for the call: 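a pool counts as active when its viability z-score with doxorubicin is -2 or below and its z-score without drug lies between -2 and 2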

For Ctsk (GeneID 13038) [SID152340523], what was measured?
combined z-score class: no change with or without drug; viability z-score with doxorubicin: -1.35; viability z-score without drug: -0.84

With Pld5 (GeneID 319455) [SID152283708], what does the deposit list?
combined z-score class: no change with or without drug; viability z-score with doxorubicin: 0.22; viability z-score without drug: 1.52

How did the screen score Dipk1a (GeneID 67266) [SID152299203]?
combined z-score class: no change with or without drug; viability z-score with doxorubicin: 0.67; viability z-score without drug: 0.84

Which result is listed for Igsf9 (GeneID 93842) [SID152319586]?
combined z-score class: no change with or without drug; viability z-score with doxorubicin: -0.9; viability z-score without drug: 0.51

For B4galnt3 (GeneID 330406) [SID152282621], how do the results read?
combined z-score class: no change with or without drug; viability z-score with doxorubicin: 0; viability z-score without drug: -0.17

For Rmp64 (GeneID 212547) [SID152310757], what does the deposit list?
combined z-score class: no change with or without drug; viability z-score with doxorubicin: -0.22; viability z-score without drug: -0.84

Which result is listed for Evc2 (GeneID 68525) [SID152319165]?
combined z-score class: no change with or without drug; viability z-score with doxorubicin: 0.9; viability z-score without drug: -0.51

What did the screen give for F5 (GeneID 14067) [SID152319159]?
combined z-score class: no change with or without drug; viability z-score with doxorubicin: 0.79; viability z-score without drug: 0.67

With Adhfe1 (GeneID 76187) [SID152290740], what does the deposit list?
combined z-score class: no change with or without drug; viability z-score with doxorubicin: -0.45; viability z-score without drug: -1.18

For 9130019P16Rik (GeneID 100042056) [SID152298363], how do the results read?
combined z-score class: no change with or without drug; viability z-score with doxorubicin: -0.45; viability z-score without drug: -0.51

With Med18 (GeneID 67219) [SID152341493], how do the results read?
combined z-score class: no change with or without drug; viability z-score with doxorubicin: 1.46; viability z-score without drug: 1.18

For Klk10 (GeneID 69540) [SID152267122], what was measured?
combined z-score class: no change with or without drug; viability z-score with doxorubicin: -0.79; viability z-score without drug: 0

For Ppm1f (GeneID 68606) [SID152339998], what does the deposit list?
combined z-score class: no change with or without drug; viability z-score with doxorubicin: -0.45; viability z-score without drug: 0.17

What is on record for Slc12a7 (GeneID 20499) [SID152316333]?
combined z-score class: no change with or without drug; viability z-score with doxorubicin: 0.9; viability z-score without drug: 1.18

What did the screen give for Eif4ebp3 (GeneID 108112) [SID152284219]?
combined z-score class: no change with or without drug; viability z-score with doxorubicin: -0.45; viability z-score without drug: 1.85

With Foxm1 (GeneID 14235) [SID152320354], how do the results read?
combined z-score class: no change with or without drug; viability z-score with doxorubicin: -0.22; viability z-score without drug: -0.34

What is on record for Cnih2 (GeneID 12794) [SID152308182]?
combined z-score class: no change with or without drug; viability z-score with doxorubicin: -0.67; viability z-score without drug: -0.51

How did the screen score Npy6r (GeneID 18169) [SID152316886]?
combined z-score class: no change with or without drug; viability z-score with doxorubicin: -1.35; viability z-score without drug: 1.35

For Tenm1 (GeneID 23963) [SID152292987], what was measured?
combined z-score class: no change with or without drug; viability z-score with doxorubicin: -0.45; viability z-score without drug: -1.52

With Chtf18 (GeneID 214901) [SID152310037], what was measured?
combined z-score class: no change with or without drug; viability z-score with doxorubicin: -0.45; viability z-score without drug: -0.17

With Clic5 (GeneID 224796) [SID152311415], what was measured?
combined z-score class: no change with or without drug; viability z-score with doxorubicin: -0.11; viability z-score without drug: -0.51

For Nap1l1 (GeneID 53605) [SID152283212], what was measured?
combined z-score class: no change with or without drug; viability z-score with doxorubicin: -0.45; viability z-score without drug: -0.84

Which result is listed for Mitf (GeneID 17342) [SID152269648]?
combined z-score class: no change with or without drug; viability z-score with doxorubicin: -0.22; viability z-score without drug: 1.01

With Or2g1 (GeneID 258623) [SID152327500], how do the results read?
combined z-score class: no change with or without drug; viability z-score with doxorubicin: 0.45; viability z-score without drug: 1.18

What is on record for Acer2 (GeneID 230379) [SID152265459]?
combined z-score class: no change with or without drug; viability z-score with doxorubicin: 0.34; viability z-score without drug: 1.18

Which result is listed for Acer2 (GeneID 230379) [SID152318901]?
combined z-score class: no change with or without drug; viability z-score with doxorubicin: 0; viability z-score without drug: 0.67

With Ermap (GeneID 27028) [SID152332449], what was measured?
combined z-score class: no change with or without drug; viability z-score with doxorubicin: 1.35; viability z-score without drug: 0

With Catsperd (GeneID 106757) [SID152309017], what was measured?
combined z-score class: no change with or without drug; viability z-score with doxorubicin: 0.67; viability z-score without drug: -0.84

In a second layout: results already given.
{"gene": "Mitf (GeneID 17342)", "PubChem SID": "SID152269648", "combined z-score class": "no change with or without drug", "viability z-score with doxorubicin": -0.22, "viability z-score without drug": 1.01}
{"gene": "Or2g1 (GeneID 258623)", "PubChem SID": "SID152327500", "combined z-score class": "no change with or without drug", "viability z-score with doxorubicin": 0.45, "viability z-score without drug": 1.18}
{"gene": "Acer2 (GeneID 230379)", "PubChem SID": "SID152265459", "combined z-score class": "no change with or without drug", "viability z-score with doxorubicin": 0.34, "viability z-score without drug": 1.18}
{"gene": "Acer2 (GeneID 230379)", "PubChem SID": "SID152318901", "combined z-score class": "no change with or without drug", "viability z-score with doxorubicin": 0, "viability z-score without drug": 0.67}
